Measurements reported in PubChem BioAssay AID1224830 (NIAID, 2016).
The whole screen tested about 18,000 reagents; this is an unselected part. About 2,900 of all reagents (16%) count as active. 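Calls are made per well; low scores hint the gene aids the LPS response, high scores that it dampens it.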 Unmarked entries are inactive. Reagents against one gene are numbered here. Repeated entries: four replicate wells of each siRNA pool.

- Assay: 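Genes whose knock-down alters the TNF-alpha reporter response to LPS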 (primary screen)
- System: human THP-1 monocytic leukaemia cells, TNF dual-luciferase reporter clone, PMA-differentiated to macrophage-like cells
- Reagents: siRNA pool against human genes, 50 nM
- Timing: LPS for 4 h, given about 3 days after siRNA transfection
- Challenge: bacterial LPS (TLR4 ligand), 10 ng/ml
- Read-out: 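TNF firefly reporter luminescence divided by renilla, normalised to the plate median, then turned into a robust z-score for each replicate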
- Scale: TNF reporter robust z-score: higher = stronger TNF reporter response to LPS
- Rule for the call: 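a well is active when its z-score exceeds 2.8 or falls below -1.5; control wells carry no call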

target	pool no.	TNF reporter robust z-score
BLVRA	1	-0.52
BLVRA	1	-0.05
BLVRA	1	-0.56
BLVRA	1	0.63
ATF6B	1	0.43
ATF6B	1	-1.39
ATF6B	1	-1.05
ATF6B	1	-1.41
SLC25A5	1	0.59
SLC25A5	1	1.63
SLC25A5	1	0.2
SLC25A5	1	1.12
AK7	1	-1.16
AK7	1	-1.72 (active)
AK7	1	-1.25
AK7	1	-0.84
RBBP9	1	-0.92
RBBP9	1	-0.85
RBBP9	1	-1.03
RBBP9	1	-1.31
BHLHE22	1	-0.85
BHLHE22	1	-0.59
BHLHE22	1	-0.71
BHLHE22	1	-0.68
NABP2	1	-0.88
NABP2	1	0.27
NABP2	1	0.95
NABP2	1	0.89
ARK2C	1	0.07
ARK2C	1	-1.53 (active)
ARK2C	1	1.25
ARK2C	1	1.65
MTX3	1	0.04
MTX3	1	-0.11
MTX3	1	0.14
MTX3	1	-0.45
LIME1	1	-1.16
LIME1	1	-0.96
LIME1	1	-1.51 (active)
SHCBP1	1	-1.39
SHCBP1	1	-1.19
SHCBP1	1	-1.1
SHCBP1	1	-0.6
HS3ST3A1	1	0.15
HS3ST3A1	1	1.04
HS3ST3A1	1	0.47
HS3ST3A1	1	0.54
TUB	1	0.59
TUB	1	1.62
TUB	1	0.82
TUB	1	0.73
GPI	1	-0.54
GPI	1	-0.11
GPI	1	-0.61
GPI	1	-0.28
ZFYVE28	1	-0.88
ZFYVE28	1	-0.99
ZFYVE28	1	-1.17
ZFYVE28	1	-0.93
RABL2A	1	-0.21
RABL2A	1	0.33
RABL2A	1	-0.69
RABL2A	1	0.06
SPATA31A1	1	1.19
SPATA31A1	1	1.15
SPATA31A1	1	0.16
SPATA31A1	1	-0.31
SPATA31A1	2	-0.63
SPATA31A1	2	-0.19
SPATA31A1	2	1.43
SPATA31A1	2	0.89
PFKFB3	1	-0.07
PFKFB3	1	0.06
PFKFB3	1	-0.96
PFKFB3	1	0.23
